Results from PMC2976706.
Results are given in words; binding and its absence hold for the method and conditions named. Binding seen in cells or lysates may run through a third protein. Some binding calls cover weakened binding; strength is not graded here. For part of these data: Sequences can lack the tags named with a protein.

Amino acid sequences for entries named in this document (tags omitted).
UniProt Q01094: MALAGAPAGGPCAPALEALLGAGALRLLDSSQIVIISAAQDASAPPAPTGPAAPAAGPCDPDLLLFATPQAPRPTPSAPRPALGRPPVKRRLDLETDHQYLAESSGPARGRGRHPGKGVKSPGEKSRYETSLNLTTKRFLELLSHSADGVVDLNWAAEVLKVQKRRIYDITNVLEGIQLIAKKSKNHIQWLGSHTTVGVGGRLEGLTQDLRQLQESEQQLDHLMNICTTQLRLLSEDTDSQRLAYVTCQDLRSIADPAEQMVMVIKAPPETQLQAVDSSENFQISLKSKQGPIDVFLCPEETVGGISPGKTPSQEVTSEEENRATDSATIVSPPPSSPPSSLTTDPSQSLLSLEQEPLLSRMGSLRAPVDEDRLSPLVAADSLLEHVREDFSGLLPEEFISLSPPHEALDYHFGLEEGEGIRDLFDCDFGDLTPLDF

T1: wt HA-Orc1 (U2OS) (human) (UniProt Q13415)
T1 sequence: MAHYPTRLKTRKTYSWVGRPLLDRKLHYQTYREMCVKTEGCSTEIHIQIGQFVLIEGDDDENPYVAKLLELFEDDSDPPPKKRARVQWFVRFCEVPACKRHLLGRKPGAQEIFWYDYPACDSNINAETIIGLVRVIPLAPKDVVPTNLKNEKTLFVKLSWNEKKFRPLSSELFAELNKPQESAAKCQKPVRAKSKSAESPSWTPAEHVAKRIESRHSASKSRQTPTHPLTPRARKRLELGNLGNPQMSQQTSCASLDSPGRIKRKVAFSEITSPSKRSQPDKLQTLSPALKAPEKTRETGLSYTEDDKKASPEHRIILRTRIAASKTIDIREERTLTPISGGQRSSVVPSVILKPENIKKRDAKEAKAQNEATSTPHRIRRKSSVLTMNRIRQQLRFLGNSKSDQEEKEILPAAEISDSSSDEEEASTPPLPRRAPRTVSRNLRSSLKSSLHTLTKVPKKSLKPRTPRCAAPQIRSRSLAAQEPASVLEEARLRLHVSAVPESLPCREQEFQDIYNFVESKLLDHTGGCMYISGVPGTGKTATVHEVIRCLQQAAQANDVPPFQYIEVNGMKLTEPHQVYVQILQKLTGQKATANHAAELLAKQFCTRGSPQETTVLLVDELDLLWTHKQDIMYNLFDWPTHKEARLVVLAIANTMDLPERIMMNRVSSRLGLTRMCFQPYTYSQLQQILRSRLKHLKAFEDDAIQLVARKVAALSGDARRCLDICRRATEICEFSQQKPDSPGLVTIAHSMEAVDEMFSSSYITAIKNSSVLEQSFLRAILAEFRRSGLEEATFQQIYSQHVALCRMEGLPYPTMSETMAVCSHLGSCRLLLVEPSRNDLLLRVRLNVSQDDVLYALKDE

T2: GST-Rb (379-928) (human) (UniProt P06400)
T2 sequence: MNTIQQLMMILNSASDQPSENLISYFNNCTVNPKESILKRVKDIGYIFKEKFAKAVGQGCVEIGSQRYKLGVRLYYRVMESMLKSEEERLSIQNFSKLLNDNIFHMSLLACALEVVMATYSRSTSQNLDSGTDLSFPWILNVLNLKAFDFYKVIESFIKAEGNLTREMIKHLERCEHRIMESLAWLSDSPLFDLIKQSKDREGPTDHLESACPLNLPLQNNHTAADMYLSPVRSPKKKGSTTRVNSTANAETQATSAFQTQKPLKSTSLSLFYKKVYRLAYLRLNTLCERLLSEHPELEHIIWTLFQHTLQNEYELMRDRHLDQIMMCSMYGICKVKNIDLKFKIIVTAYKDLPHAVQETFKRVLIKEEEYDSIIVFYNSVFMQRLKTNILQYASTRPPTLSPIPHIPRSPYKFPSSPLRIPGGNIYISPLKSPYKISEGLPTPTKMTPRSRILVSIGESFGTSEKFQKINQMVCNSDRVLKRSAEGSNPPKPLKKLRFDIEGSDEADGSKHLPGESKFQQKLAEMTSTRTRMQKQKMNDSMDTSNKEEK


Experiments:
[1] = target: T1, wt HA-Orc1 (U2OS) (human); test: co-IP; anti-HA immunoprecipitation from U2OS cells transfected with wt HA-Orc1 or HA-Orc1 LPGRK; western blot for endogenous Rb
GST-E2F1 (human) = GST-E2F1 (human) (UniProt Q01094); test: pull-down; 1 ug GST fusion protein on glutathione-agarose beads, pretreated with DNase I and RNase A, incubated with in vitro translated [35S]-protein in 0.1 mg/ml ethidium bromide; SDS-PAGE, phosphoimaging; only the target purified
GST-Rb (379-928) (human) = target: T2, GST-Rb (379-928) (human); test: as above

Row | Binder | binding [1] | binding (GST-E2F1 (human)) | binding (GST-Rb (379-928) (human))
1 | hypo-phosphorylated endogenous Rb (U2OS) (protein, UniProt P06400 1-928, hypo-phosphorylated form (sites not given)) MPPKTPRKTAATAAAAAAEPPAPPPPPPPEEDPEQDSGPEDLPLVRLEFEETEEPDFTALCQKLKIPDHVRERAWLTWEKVSSVDGVLGGYIQKKKELWGICIFIAAVDLDEMSFTFTELQKNIEISVHKFFNLLKEIDTSTKVDNAMSRLLKKYDVLFALFSKLERTCELIYLTQPSSSISTEINSALVLKVSWITFLLAKGEVLQMEDDLVISFQLMLCVLDYFIKLSPPMLLKEPYKTAVIPINGSPRTPRRGQNRSARIAKQLENDTRIIEVLCKEHECNIDEVKNVYFKNFIPFMNSLGLVTSNGLPEVENLSKRYEEIYLKNKDLDARLFLDHDKTLQTDSIDSFETQRTPRKSNLDEEVNVIPPHTPVRTVMNTIQQLMMILNSASDQPSENLISYFNNCTVNPKESILKRVKDIGYIFKEKFAKAVGQGCVEIGSQRYKLGVRLYYRVMESMLKSEEERLSIQNFSKLLNDNIFHMSLLACALEVVMATYSRSTSQNLDSGTDLSFPWILNVLNLKAFDFYKVIESFIKAEGNLTREMIKHLERCEHRIMESLAWLSDSPLFDLIKQSKDREGPTDHLESACPLNLPLQNNHTAADMYLSPVRSPKKKGSTTRVNSTANAETQATSAFQTQKPLKSTSLSLFYKKVYRLAYLRLNTLCERLLSEHPELEHIIWTLFQHTLQNEYELMRDRHLDQIMMCSMYGICKVKNIDLKFKIIVTAYKDLPHAVQETFKRVLIKEEEYDSIIVFYNSVFMQRLKTNILQYASTRPPTLSPIPHIPRSPYKFPSSPLRIPGGNIYISPLKSPYKISEGLPTPTKMTPRSRILVSIGESFGTSEKFQKINQMVCNSDRVLKRSAEGSNPPKPLKKLRFDIEGSDEADGSKHLPGESKFQQKLAEMTSTRTRMQKQKMNDSMDTSNKEEK | binds | – | –
2 | in vitro translated [35S]-labelled Orc2 (protein, UniProt Q13416 1-577, [35S]-labelled) MSKPELKEDKMLEVHFVGDDDVLNHILDREGGAKLKKERAQLLVNPKKIIKKPEYDLEEDDQEVLKDQNYVEIMGRDVQESLKNGSATGGGNKVYSFQNRKHSEKMAKLASELAKTPQKSVSFSLKNDPEITINVPQSSKGHSASDKVQPKNNDKSEFLSTAPRSLRKRLIVPRSHSDSESEYSASNSEDDEGVAQEHEEDTNAVIFSQKIQAQNRVVSAPVGKETPSKRMKRDKTSDLVEEYFEAHSSSKVLTSDRTLQKLKRAKLDQQTLRNLLSKVSPSFSAELKQLNQQYEKLFHKWMLQLHLGFNIVLYGLGSKRDLLERFRTTMLQDSIHVVINGFFPGISVKSVLNSITEEVLDHMGTFRSILDQLDWIVNKFKEDSSLELFLLIHNLDSQMLRGEKSQQIIGQLSSLHNIYLIASIDHLNAPLMWDHAKQSLFNWLWYETTTYSPYTEETSYENSLLVKQSGSLPLSSLTHVLRSLTPNARGIFRLLIKYQLDNQDNPSYIGLSFQDFYQQCREAFLVNSDLTLRAQLTEFRDHKLIRTKKGTDGVEYLLIPVDNGTLTDFLEKEEEEA | – | no binding | no binding
